Taken from: PubChem BioAssay AID1259254 (NCATS, 2017)

Purpose: 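Finding genes that stop cells copying their DNA twice in one cycle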 (primary screen)
System: human HCT116 colorectal cancer cells
Reagents: single siRNA against human genes
Time to read-out: 3 days
Measurement: 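Nuclei stained with Hoechst and imaged; cell-cycle phase assigned by DNA content; G2 share scaled per plate, non-targeting siRNA 0%, GMNN siRNA 100%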
Reading the numbers: G2 robust z-score and G2 cells, % of GMNN control: higher = more G2 cells, more excess DNA replication
Hit rule: 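An siRNA counts as active if its G2 robust z-score lies at least 5 MADs above the screen median; here such calls match roughly 38% of GMNN control or more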
The deposit covers about 59,000 reagents; this is an unselected part. In the full data, about 1,550 (2.6%) are marked active. 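G2 share is only a proxy for re-replication; each gene was hit by three separate siRNAs, and active genes were retested.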 A number with no mark means an inactive call. Reagents against one gene are numbered here. Not all columns of the deposit are shown. Not given: the amount of reagent.

no.	target gene	reagent no.	G2 robust z-score	G2 cells, % of GMNN control
1	NOP9 (GeneID 161424)	1	-0.318	0.73
2	NOP9 (GeneID 161424)	2	-0.0681	2.49
3	NOP9 (GeneID 161424)	3	-0.113	2.18
4	EIF4A2 (GeneID 1974)	1	5.66 (active)	42.8
5	EIF4A2 (GeneID 1974)	2	-0.666	-1.72
6	EIF4A2 (GeneID 1974)	3	-0.4	0.151
7	VAT1L (GeneID 57687)	1	0.404	5.81
8	VAT1L (GeneID 57687)	2	0.501	6.49
9	VAT1L (GeneID 57687)	3	-0.983	-3.95
10	GJB5 (GeneID 2709)	1	0.708	7.95
11	GJB5 (GeneID 2709)	2	0.466	6.24
12	GJB5 (GeneID 2709)	3	-0.648	-1.59
13	FLT4 (GeneID 2324)	1	-1.03	-4.26
14	FLT4 (GeneID 2324)	2	2.34	19.4
15	FLT4 (GeneID 2324)	3	0.00954	3.03
16	MIR4453HG (GeneID 54553)	1	-0.544	-0.858
17	MIR4453HG (GeneID 54553)	2	-1	-4.07
18	MIR4453HG (GeneID 54553)	3	1.63	14.5
19	ITGA9 (GeneID 3680)	1	0.738	8.16
20	ITGA9 (GeneID 3680)	2	1.37	12.6
21	ITGA9 (GeneID 3680)	3	-1.69	-8.92
22	FIG4 (GeneID 9896)	1	2.86	23.1
23	FIG4 (GeneID 9896)	2	2.7	22
24	FIG4 (GeneID 9896)	3	0.0451	3.28
25	LINC00574 (GeneID 80069)	1	-0.127	2.08
26	LINC00574 (GeneID 80069)	2	0.678	7.74
27	LINC00574 (GeneID 80069)	3	-1.02	-4.2
28	NXF2 (GeneID 56001)	1	-0.777	-2.5
29	NXF2 (GeneID 56001)	2	-1.07	-4.55
30	NXF2 (GeneID 56001)	3	0.691	7.83
31	SPTLC1 (GeneID 10558)	1	1.69	14.8
32	SPTLC1 (GeneID 10558)	2	1.36	12.5
33	SPTLC1 (GeneID 10558)	3	2.98	24
34	ULBP2 (GeneID 80328)	1	-0.433	-0.0818
35	ULBP2 (GeneID 80328)	2	0.436	6.03
36	ULBP2 (GeneID 80328)	3	1.29	12
37	IL23A (GeneID 51561)	1	-1.4	-6.88
38	IL23A (GeneID 51561)	2	-0.141	1.98
39	IL23A (GeneID 51561)	3	-0.94	-3.65
40	SLC35G5 (GeneID 83650)	1	8.05 (active)	59.6
41	SLC35G5 (GeneID 83650)	2	0.693	7.84
42	SLC35G5 (GeneID 83650)	3	-0.877	-3.2
43	SLC14A1 (GeneID 6563)	1	0.365	5.54
44	SLC14A1 (GeneID 6563)	2	5.19 (active)	39.5
45	SLC14A1 (GeneID 6563)	3	3.56	28

Entries listed so far whose gene name begins with V or v (3):
target gene	reagent no.	G2 robust z-score	G2 cells, % of GMNN control
VAT1L (GeneID 57687)	1	0.404	5.81
VAT1L (GeneID 57687)	2	0.501	6.49
VAT1L (GeneID 57687)	3	-0.983	-3.95

Continued:
no.	target gene	reagent no.	G2 robust z-score	G2 cells, % of GMNN control
46	DEK (GeneID 7913)	1	-0.985	-3.96
47	DEK (GeneID 7913)	2	-0.607	-1.3
48	DEK (GeneID 7913)	3	-1.1	-4.78
49	NETO1 (GeneID 81832)	1	-0.571	-1.05
50	NETO1 (GeneID 81832)	2	-0.701	-1.96
51	NETO1 (GeneID 81832)	3	0.289	5
52	SGPP1 (GeneID 81537)	1	-0.822	-2.82
53	SGPP1 (GeneID 81537)	2	-0.639	-1.53
54	SGPP1 (GeneID 81537)	3	0.271	4.88
55	NSUN3 (GeneID 63899)	1	-0.125	2.09
56	NSUN3 (GeneID 63899)	2	0.662	7.62
57	NSUN3 (GeneID 63899)	3	-0.407	0.105
58	RABL2A (GeneID 11159)	1	2.96	23.8
59	RABL2A (GeneID 11159)	2	-0.607	-1.3
60	RABL2A (GeneID 11159)	3	-1.48	-7.47
61	SERTAD1 (GeneID 29950)	1	-1.09	-4.69
62	SERTAD1 (GeneID 29950)	2	-0.393	0.204
63	SERTAD1 (GeneID 29950)	3	3.56	28
64	C1orf141 (GeneID 400757)	1	1.43	13.1
65	C1orf141 (GeneID 400757)	2	-0.725	-2.14
66	C1orf141 (GeneID 400757)	3	0.738	8.16
67	PGLYRP4 (GeneID 57115)	1	-0.644	-1.56
68	PGLYRP4 (GeneID 57115)	2	-0.322	0.703
69	PGLYRP4 (GeneID 57115)	3	-1.09	-4.74
70	BCLAF1P1 (GeneID 728366)	1	-0.944	-3.68
71	BCLAF1P1 (GeneID 728366)	2	-0.462	-0.281
72	BCLAF1P1 (GeneID 728366)	3	3.26	25.9
73	TEX13B (GeneID 56156)	1	-0.0789	2.41
74	TEX13B (GeneID 56156)	2	-0.647	-1.58
75	TEX13B (GeneID 56156)	3	0.324	5.25
76	KIF18B (GeneID 146909)	1	0.868	9.07
77	KIF18B (GeneID 146909)	2	2.76	22.4
78	KIF18B (GeneID 146909)	3	0.809	8.66
79	GCLM (GeneID 2730)	1	6.33 (active)	47.5
80	GCLM (GeneID 2730)	2	-0.868	-3.14
81	GCLM (GeneID 2730)	3	1.78	15.5
82	EEIG1 (GeneID 399665)	1	0.763	8.34
83	EEIG1 (GeneID 399665)	2	-0.559	-0.965
84	EEIG1 (GeneID 399665)	3	-0.226	1.38
85	EGR1 (GeneID 1958)	1	3.92	30.6
86	EGR1 (GeneID 1958)	2	0.473	6.3
87	EGR1 (GeneID 1958)	3	0.56	6.91
